Measured values taken from patent US20170342161A1 (APROGEN KIC, published 2017).
These are yes or no findings as the source states them, for the method shown. Some binding calls cover weakened binding; strength is not graded here. One block for each binder: values may come before it.

By UniProt entry, the sequences of proteins in these tests, tags left out. Where a name states a change or a piece, a line headed by the entry shows the natural chain unless it says otherwise.
UniProt O43570: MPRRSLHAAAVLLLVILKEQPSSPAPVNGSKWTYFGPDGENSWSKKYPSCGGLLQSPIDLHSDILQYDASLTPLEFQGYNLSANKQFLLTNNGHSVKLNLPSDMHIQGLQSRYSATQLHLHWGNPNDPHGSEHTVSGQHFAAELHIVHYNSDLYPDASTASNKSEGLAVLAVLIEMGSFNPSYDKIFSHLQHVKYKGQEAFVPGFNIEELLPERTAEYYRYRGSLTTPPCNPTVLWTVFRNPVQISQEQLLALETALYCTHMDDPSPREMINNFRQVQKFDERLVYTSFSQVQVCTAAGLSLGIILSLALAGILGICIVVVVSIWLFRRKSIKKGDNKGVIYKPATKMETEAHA

Tests used:
[1] = molecular target: recombinant protein carbonic anhydrase 12 (R&D Systems) (Homo sapiens (Human)) (UniProt O43570); assay: ELISA, recombinant CA12 coated at 100 ng/well
[2] = molecular target: recombinant protein carbonic anhydrase 12 (R&D Systems) (Homo sapiens (Human)) (UniProt O43570); assay: Western blot of boiled recombinant CA12
[3] = molecular target: recombinant protein carbonic anhydrase 12 (R&D Systems) (Homo sapiens (Human)) (UniProt O43570); assay: sandwich ELISA, chimeric 27B6 coated as capture, recombinant CA12 from 100 ng/ml, 4B4 as detector
[4] = molecular target: recombinant protein carbonic anhydrase 12 (R&D Systems) (Homo sapiens (Human)) (UniProt O43570); assay: ELISA, Western blot and sandwich ELISA on recombinant CA12 (signal of 27B6 'relatively low' in the direct formats)

binding [1]: binds
binding [2]: binds
binding [3]: binds
B1: 4B4 monoclonal antibody (antibody, V domains shown)
VH: EIQLQQSGPELVKPGASVKISCKASGYSYTDYNIYWVRQSQGKSLDWIGYIDPANGDTTYNQKFKGKATLTVDKSSSTAFMHLNSLTSDGSAVYFCARPIYYGVYWYFDVWGAGTTVTVS
VL: DIVMTQAAPSVPVTPGESVSISCRSSKSLLHSNGNTYLYWFLQRPGQSPQLLIYRMSNLASGVPDRFSGSGSGTAFTLRISRVEAEDVGVYYCMQHLEYPFTFGSGTKLEIK
notes: Mouse hybridoma antibody; also called 4B4 Ab; mouse 4B4 antibody

binding [1]: binds
binding [4]: binds
binding [2]: binds
B2: 27B6 monoclonal antibody (antibody, mouse IgG1, V domains shown)
VH: QVQLQQSGPQLVWPGASVKISCNTSGYSFTNYWIHWVKQRPGQGLEWIGMIDPSDSETRLNQKFKDKTTLTVDRSSSTAYMQVSSSTSEDSAVYYCTRGIRGGYYAMDYWGQGTSVTVSS
VL: DIQMTQTTSSLSASLGDRVTISCRASQDISNYLNWYQQKPEGTVKLLIYYTSRLHSGVPSRFSGSGSGTDYSLTISNLEQEDIATYFCQQGDTLPRTFGEGTKLEIR
notes: also called 27B6 Ab; mouse 27B6 antibody

binding [3]: binds
B3: 27B6 chimeric antibody (antibody, V domains shown)
VH: B2 VH
VL: B2 VL
notes: Chimeric antibody: mouse 27B6 variable regions, the rest 'substituted with the Fc of the human antibody'; Produced in CHO DG44 cells; also called chimeric 27B6; 27B6-HuIgFc
